Test results as given in patent publication US20050171032A1, “Methods for the treatment of cancer” (priority 2002, published 2005).
For at least one compound, name, drawing or mass did not settle the structure.

Key:
Format in all cases: cell-based, human
[1] = test system: LNCaP cells; experiment: Apoptosis assays (TUNEL/flow cytometry, cell death detection ELISA, DNA ladder) in LNCaP cells
[2] = test system: LNCaP cells; experiment: Cholesterol content of the lipid raft fraction (sucrose gradient ultracentrifugation), LNCaP cells; details: 10 μM simvastatin overnight, serum-free, FIG. 5
[3] = test system: Akt1; experiment: Akt1 phosphorylation (Ser-473) by immunoblot, LNCaP cells; details: simvastatin 5 μM, EGF 20 ng/ml, FIG. 6A
Method: LNCaP cells were used for all experiments shown. Prior to challenge with EGF (2 or 20 ng/ml), some groups of cells were treated with filipin (2 μg/ml) (lanes 7-12) for 1 h. Other cells (lanes 4-6, 10-12) were subsequently incubated with cyclodextrin/cholesterol complexes (Cholesterol) for 1 h to replete cholesterol (FIG. 4A). In this and subsequent panels, lysates were isolated following the various treatments and processed for immunoblot analysis. p-Akt refers to a phosphorylated form of Akt1 detected with a phospho-specific Ab ([…]). […] Cell lysates were isolated following the various treatments and processed for immunoblot analysis. p-Akt=phosphorylated form of Akt detected with a phospho-specific Ab ([…]). […] In these experiments the apoptosis of cells treated with simvastatin or mock-treated, with or without raft reconstitution, was quantified by cell death detection ELISA (Roche). Cells were either mock-treated or treated with various doses of simvastatin as indicated for 16 hours and the amount of apoptosis was quantified by ELISA and is graphically represented as absorbance at 405 nm-490 nm vs. dose of statin drug±SD from triplicate determinations (FIG. 6B). The cells were treated either in simvastatin (Sim; 10 μM) or simvastatin (Sim) and cyclodextrin/cholesterol complex (+cholesterol) for 4 hours and the amount of apoptosis was quantified by ELISA (FIG. 6C). […]

Row | SMILES | apoptosis ([1]; serum-free, 20 μM LY294002 20 h, 2 μg/ml filipin 1 h, FIG. 3) | apoptosis in prostate tumor cells ([1]; simvastatin various doses 16 h, 10 μM 4 h or days, ELISA and PI flow cytometry, FIGS. 6B-F) | levels of cholesterol in the lipid raft compartment [2] | Akt activation (p-Akt Ser-473) [3]
1 | O=c1cc(N2CCOCC2)oc2c(-c3ccccc3)cccc12 [LY294002] | triggered apoptosis | – | – | –
2 | CCC(C)(C)C(=O)O[C@H]1C[C@@H](C)C=C2C=C[C@H](C)[C@H](CC[C@@H]3C[C@@H](O)CC(=O)O3)[C@H]21 [simvastatin] | – | increased apoptosis | decreased levels of cholesterol | reduced Akt activation
